Source: PMC4267622, “Pin1-mediated Sp1 phosphorylation by CDK1 increases Sp1 stability and decreases its DNA-binding activity during mitosis” (Nucleic Acids Research, 2014)
For at least one entry, the source does not settle the construct or the ends of the probe. At least one result comes from cells or an extract, where the contact may be indirect. For some of these results: A weaker result is weaker than the reference pair of the same experiment. For some of these results: At least one verdict was read from the data and is not stated in words by the source.

Legend:
Test in all cases: DAPA (streptavidin pull-down)
[1] = target: HA-Sp1-4A S720A,T723A,T737A,T739A (UniProt P08047); settings: increased vs HA-Sp1, mitotic extract; DAPA: 1 ug probe in 500 ul 20 mM Tris-HCl pH 7.8, 60 mM KCl, 2 mM MgCl2, 0.5 mM EDTA, 5% glycerol, 0.02% NP-40; 1 h at 4 C, then streptavidin-agarose 1 h at 4 C; protein in a lysate after overexpression; residues 1-785; protein details: HA; label: 5' biotin on S1 strand
HA-Sp1 = HA-Sp1 (UniProt P08047); settings: reference, mitotic extract; DAPA: 1 ug probe in 500 ul 20 mM Tris-HCl pH 7.8, 60 mM KCl, 2 mM MgCl2, 0.5 mM EDTA, 5% glycerol, 0.02% NP-40; 1 h at 4 C, then streptavidin-agarose 1 h at 4 C; protein in a lysate after overexpression; residues 1-785; protein details: HA; label: 5' biotin on S1 strand
GFP-Sp1(1-785) = GFP-Sp1(1-785) (UniProt P08047); settings: reference for 1-740, mitotic HeLa extract; DAPA: 1 ug probe in 500 ul 20 mM Tris-HCl pH 7.8, 60 mM KCl, 2 mM MgCl2, 0.5 mM EDTA, 5% glycerol, 0.02% NP-40; 1 h at 4 C, then streptavidin-agarose 1 h at 4 C; protein in a lysate after overexpression; residues 1-785; protein details: GFP; label: 5' biotin on S1 strand
[2] = target: HA-Sp1-4D S720D,T723D,T737D,T739D (UniProt P08047); settings: decreased vs HA-Sp1, mitotic extract; DAPA: 1 ug probe in 500 ul 20 mM Tris-HCl pH 7.8, 60 mM KCl, 2 mM MgCl2, 0.5 mM EDTA, 5% glycerol, 0.02% NP-40; 1 h at 4 C, then streptavidin-agarose 1 h at 4 C; protein in a lysate after overexpression; residues 1-785; protein details: HA; label: 5' biotin on S1 strand
Sp1 (endogenous, HeLa) = Sp1 (endogenous, HeLa) (UniProt P08047); settings: mitosis, DAPA: 1 ug probe in 500 ul 20 mM Tris-HCl pH 7.8, 60 mM KCl, 2 mM MgCl2, 0.5 mM EDTA, 5% glycerol, 0.02% NP-40, 1 h at 4 C, then streptavidin-agarose 1 h at 4 C, protein in an extract, label: 5' biotin on S1 strand
GFP-Sp1(1-740) = GFP-Sp1(1-740) (UniProt P08047); settings: increased vs 1-785, mitotic HeLa extract; DAPA: 1 ug probe in 500 ul 20 mM Tris-HCl pH 7.8, 60 mM KCl, 2 mM MgCl2, 0.5 mM EDTA, 5% glycerol, 0.02% NP-40; 1 h at 4 C, then streptavidin-agarose 1 h at 4 C; protein in a lysate after overexpression; residues 1-740; protein details: GFP; label: 5' biotin on S1 strand

“CCCGCCTCCTTGAGGCGGGCCCGGGCGGGGCGG (double strand) [p21WAF1/CIP1 promoter Sp1 probe (-82 to -50)]”: binds [1]; binds (HA-Sp1); binds (GFP-Sp1(1-785)). “CCCGCCTCCTTGAGGCGGGCCCGGGCGGGGCGG (double strand) [p21WAF1/CIP1 promoter Sp1 probe (-82 to -50)]”: binds more weakly [2]; binds (Sp1 (endogenous, HeLa); Pin1 knock-down, increased binding vs control); binds (Sp1 (endogenous, HeLa); control without Pin1 knock-down (reference)). “CCCGCCTCCTTGAGGCGGGCCCGGGCGGGGCGG (double strand) [p21WAF1/CIP1 promoter Sp1 probe (-82 to -50)]”: binds (GFP-Sp1(1-740)).
